Data as given in article doi:10.1101/617571.
No constants are given. Whether binding was seen depends on the method and setting. In cells and extracts the contact can be indirect. These calls come from enrichment with a bait or labelling near it, and not all partners need be listed.

Chains of the proteins cited; added tags and fusions are not shown.
UniProt Q8IHZ9, whole entry: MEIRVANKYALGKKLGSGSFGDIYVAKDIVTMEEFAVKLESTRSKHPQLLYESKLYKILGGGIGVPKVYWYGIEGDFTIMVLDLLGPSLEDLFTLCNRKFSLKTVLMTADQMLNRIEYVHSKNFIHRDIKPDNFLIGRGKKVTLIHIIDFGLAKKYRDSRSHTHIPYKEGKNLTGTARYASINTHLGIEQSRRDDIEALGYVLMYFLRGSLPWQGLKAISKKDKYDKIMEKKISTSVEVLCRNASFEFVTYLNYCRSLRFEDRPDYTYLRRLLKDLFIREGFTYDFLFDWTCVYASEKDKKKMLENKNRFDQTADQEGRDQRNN

T1: GTPase-activating protein and Vps9 domain-containing protein 1 (GAPVD1) (human (endogenous in red blood cells)) (UniProt Q14C86)
T1 sequence: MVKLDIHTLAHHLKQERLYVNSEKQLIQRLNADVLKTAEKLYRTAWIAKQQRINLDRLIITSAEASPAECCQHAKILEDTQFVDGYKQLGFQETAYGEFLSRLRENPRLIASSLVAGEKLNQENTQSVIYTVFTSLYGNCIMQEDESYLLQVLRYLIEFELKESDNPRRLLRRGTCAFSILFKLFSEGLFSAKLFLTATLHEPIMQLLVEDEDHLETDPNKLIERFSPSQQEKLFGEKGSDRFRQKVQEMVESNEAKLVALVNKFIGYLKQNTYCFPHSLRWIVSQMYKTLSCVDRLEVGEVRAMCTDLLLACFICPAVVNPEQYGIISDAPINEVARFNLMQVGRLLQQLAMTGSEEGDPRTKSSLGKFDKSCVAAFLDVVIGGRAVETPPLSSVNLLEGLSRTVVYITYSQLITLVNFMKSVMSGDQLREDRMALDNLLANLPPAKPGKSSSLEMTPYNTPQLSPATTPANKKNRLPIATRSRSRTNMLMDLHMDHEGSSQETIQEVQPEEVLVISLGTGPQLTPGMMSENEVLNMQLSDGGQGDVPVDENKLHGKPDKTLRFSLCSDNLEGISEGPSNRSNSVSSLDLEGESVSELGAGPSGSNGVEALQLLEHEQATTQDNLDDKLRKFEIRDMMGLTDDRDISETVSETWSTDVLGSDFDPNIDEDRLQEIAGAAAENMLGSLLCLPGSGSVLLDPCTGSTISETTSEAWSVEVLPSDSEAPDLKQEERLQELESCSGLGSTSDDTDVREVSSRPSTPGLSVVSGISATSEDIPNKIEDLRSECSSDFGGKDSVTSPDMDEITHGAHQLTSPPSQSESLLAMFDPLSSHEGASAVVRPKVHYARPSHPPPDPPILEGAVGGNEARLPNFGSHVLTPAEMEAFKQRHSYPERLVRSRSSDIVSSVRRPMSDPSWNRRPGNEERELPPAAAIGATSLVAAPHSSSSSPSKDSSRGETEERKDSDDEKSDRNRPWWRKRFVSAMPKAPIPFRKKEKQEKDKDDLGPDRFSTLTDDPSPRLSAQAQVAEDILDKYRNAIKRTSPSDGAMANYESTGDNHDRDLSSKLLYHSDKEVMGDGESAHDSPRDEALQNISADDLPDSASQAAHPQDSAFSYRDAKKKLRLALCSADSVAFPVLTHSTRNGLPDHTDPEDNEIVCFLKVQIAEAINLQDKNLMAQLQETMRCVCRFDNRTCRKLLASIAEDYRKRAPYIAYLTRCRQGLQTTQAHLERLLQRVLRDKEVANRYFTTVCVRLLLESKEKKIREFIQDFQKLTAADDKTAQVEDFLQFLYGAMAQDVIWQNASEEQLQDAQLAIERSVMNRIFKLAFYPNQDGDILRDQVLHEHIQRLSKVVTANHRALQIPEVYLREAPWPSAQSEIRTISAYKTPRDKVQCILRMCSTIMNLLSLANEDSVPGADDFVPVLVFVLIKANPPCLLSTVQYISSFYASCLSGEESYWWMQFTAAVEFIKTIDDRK

B1: GTPase-activating protein and Vps9 domain-containing protein 1 (GAPVD1) (protein, UniProt Q14C86 1-1478)
chain: T1 sequence
B2: Sorting nexin 22 (SNX22) (protein, UniProt Q96L94 1-193)
chain: MLEVHIPSVGPEAEGPRQSPEKSHMVFRVEVLCSGRRHTVPRRYSEFHALHKRIKKLYKVPDFPSKRLPNWRTRGLEQRRQGLEAYIQGILYLNQEVPKELLEFLRLRHFPTDPKASNWGTLREFLPGDSSSQQHQRPVLSFHVDPYVCNPSPESLPNVVVNGVLQGLYSFSISPDKAQPKAACHPAPLPPMP

Columns and labels:
[1] = target: T1, GTPase-activating protein and Vps9 domain-containing protein 1 (GAPVD1) (human (endogenous in red blood cells)); experiment: affinity purification with mass spectrometry
[2] = target: Plasmodium falciparum casein kinase 1, GFP-tagged (PfCK1-GFP) (Plasmodium falciparum (3D7)) (UniProt Q8IHZ9); experiment: affinity purification with mass spectrometry

Molecule | binding [1] | binding [2]
Plasmodium falciparum casein kinase 1 (PfCK1), native untagged (from UniProt Q8IHZ9 1-324) (enzyme) | binds | 
P. falciparum Vacuolar protein sorting-associated protein 51 (PfVps51) | binds | 
B1 |  | binds
B2 |  | binds
